Reference: PubChem BioAssay AID1259425 (University of Nebraska Medical Center, 2018)
Shown is an unselected part of about 14,000 deposited reagents. Further read-outs or replicates are left out here. No sequences are given here. Not given: the time to read-out.

- Screen: 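Compare each knockdown with KSR1 silencing using changes in marker transcripts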 (primary screen)
- Cell system: HCT116 human colon cancer cells
- Knock-down reagent: siRNA pool against human genes, 50 nM siRNA
- Measurement: 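After 50 nM siRNA pool, branched-DNA assay measures six marker transcripts per well, minus blank, normalised to the geometric mean of two housekeeping transcripts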
- Reading the numbers: BNIP3L mRNA: higher = more BNIP3L transcript after knockdown; NDRG1 mRNA: higher = more NDRG1 transcript after knockdown

C1QB (complement C1q B chain)
- BNIP3L mRNA, set 1: 0.12
- NDRG1 mRNA, set 1: 0.176

CALB2 (calbindin 2)
- BNIP3L mRNA, set 1: 0.216
- NDRG1 mRNA, set 1: 0.505

ZNF76 (zinc finger protein 76)
- BNIP3L mRNA, set 1: 0.116
- NDRG1 mRNA, set 1: 0.139

CRYM (crystallin mu)
- BNIP3L mRNA, set 1: 0.0656
- NDRG1 mRNA, set 1: 0.233

MAP3K2 (mitogen-activated protein kinase kinase kinase 2)
- BNIP3L mRNA, set 1: 0.0661
- NDRG1 mRNA, set 1: 0.155

SLC8B1
- BNIP3L mRNA, set 1: 0.128
- NDRG1 mRNA, set 1: 0.166

COPRS (coordinator of PRMT5 and differentiation stimulator)
- BNIP3L mRNA, set 1: 0.095
- NDRG1 mRNA, set 1: 0.118

GPT (glutamic--pyruvic transaminase)
- BNIP3L mRNA, set 1: 0.118
- NDRG1 mRNA, set 1: 0.187

ASAH2 (N-acylsphingosine amidohydrolase 2)
- BNIP3L mRNA, set 1: 0.117
- NDRG1 mRNA, set 1: 2.37

LIMS1 (LIM zinc finger domain containing 1)
- BNIP3L mRNA, set 1: 0.0701
- NDRG1 mRNA, set 1: 0.239

VAMP8 (vesicle associated membrane protein 8)
- BNIP3L mRNA, set 1: 0.13
- NDRG1 mRNA, set 1: 0.143

POFUT1 (protein O-fucosyltransferase 1)
- BNIP3L mRNA, set 1: 0.0712
- NDRG1 mRNA, set 1: 0.559

Only “NDRG1 mRNA, set 1”, for 2 of the entries above:
ASAH2 (N-acylsphingosine amidohydrolase 2) = 2.37
LIMS1 (LIM zinc finger domain containing 1) = 0.239
